Earlier results, collected in patent US6503906B1 (priority 2002, dated 2003).

System: gram positive and negative bacteria
Settings: human, in vivo; cited from earlier work

SMILES: O=C(O)c1cn(C2CC2)c2cc(N3CCNCC3)c(F)cc2c1=O [ciprofloxacin]
- patients remaining culture-positive: more than 60%
